Some of these results come from one statement about several compounds together.
These sequences were tested on immature dendritic cells (iDCs) and autologous T-cells (assay: CMV assay: iDCs pulsed with pp65 +/- peptide, then co-incubated with T-cells). Conditions: iDCs co-treated with pp65 and equimolar peptide, T-cells 48 h.
Type: cell-based, human
Description: Dendritic cell differentiation. Cytomegalovirus (CMV)-positive HLA-A2^+ lymphocyte packs were obtained from the American Red Cross, and CD14^+ cells were purified. Approximately 1×10^8 CD14^+ cells were cultured in polystyrene tissue-culture flasks at 37° C. in 5% CO2. GM-CSF (25 ng/mL) and IL-4 (40 ng/mL) were both added on days 3 and 5 to derive immature dendritic cells (iDCs).
CMV assay. iDCs (5×10^5) were pulsed with 10 μg of CMV antigen peptide pp65495-503 (NLVPMVATV) and cultured as described above. The iDCs were then washed three times, and 5×10^5 CD8^+ T-cells from CMV-positive donors were co-incubated with the pulsed iDCs. CMV-negative PBMCs were used as a negative control. Supernatants were collected after 48 h of incubation and analyzed for IFNγ production by cytometric bead array (BD Biosciences).
To assess the effects of P1A8, P2A0, and P4A10 on the antigen-specific response, we measured IFNγ release in the following assay. iDCs were pulsed with the CMV antigen pp65 with and without an equimolar amount of P1A8, P2A0, or P4A10. Autologous T-cells were then added and incubated with the iDCs for 48 h, after which IFNγ production was measured in the supernatants. Exposure to pp65 increased T-cell IFNγ production approximately 4-fold (FIG. 4c). Co-treatment of iDCs with pp65 and P1A8, P2A0, or P4A10 increased IFNγ release by an additional 2- to 3-fold over pp65 alone.

Row | Sequence | increase of IFNγ release over pp65 alone
1 | CLFNTFGFGAISGTA (listed as Homo sapiens) [P4A10] | 2- to 3 fold
2 | NITLEDEGCYMCLFN (listed as Homo sapiens) [P2A0] | 2- to 3 fold
3 | IVTWQKKAAVSPENM (listed as Homo sapiens) [P1A8] | 2- to 3 fold
